Test results reported in PMC7348141.
These are yes or no findings as the source states them, for the method shown. Binding seen in cells or lysates may run through a third protein. Some results given as binding are weak or reduced against the parent protein; the word gives no strength.

Sequences of proteins named here, by UniProt entry; tags and fusion partners are left off.
UniProt P46937: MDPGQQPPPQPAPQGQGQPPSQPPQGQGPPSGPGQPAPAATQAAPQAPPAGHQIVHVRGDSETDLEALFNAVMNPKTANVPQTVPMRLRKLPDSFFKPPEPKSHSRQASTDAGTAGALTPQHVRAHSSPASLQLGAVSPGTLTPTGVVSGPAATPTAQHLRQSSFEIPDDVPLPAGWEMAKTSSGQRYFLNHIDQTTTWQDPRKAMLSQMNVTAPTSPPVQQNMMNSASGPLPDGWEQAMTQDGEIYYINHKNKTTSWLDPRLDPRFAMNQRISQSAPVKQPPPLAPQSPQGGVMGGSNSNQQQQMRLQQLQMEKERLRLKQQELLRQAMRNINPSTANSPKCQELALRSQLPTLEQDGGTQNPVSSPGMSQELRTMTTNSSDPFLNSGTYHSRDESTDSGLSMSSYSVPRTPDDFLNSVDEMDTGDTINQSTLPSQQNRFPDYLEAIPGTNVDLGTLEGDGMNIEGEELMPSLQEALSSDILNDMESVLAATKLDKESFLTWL
UniProt Q15796: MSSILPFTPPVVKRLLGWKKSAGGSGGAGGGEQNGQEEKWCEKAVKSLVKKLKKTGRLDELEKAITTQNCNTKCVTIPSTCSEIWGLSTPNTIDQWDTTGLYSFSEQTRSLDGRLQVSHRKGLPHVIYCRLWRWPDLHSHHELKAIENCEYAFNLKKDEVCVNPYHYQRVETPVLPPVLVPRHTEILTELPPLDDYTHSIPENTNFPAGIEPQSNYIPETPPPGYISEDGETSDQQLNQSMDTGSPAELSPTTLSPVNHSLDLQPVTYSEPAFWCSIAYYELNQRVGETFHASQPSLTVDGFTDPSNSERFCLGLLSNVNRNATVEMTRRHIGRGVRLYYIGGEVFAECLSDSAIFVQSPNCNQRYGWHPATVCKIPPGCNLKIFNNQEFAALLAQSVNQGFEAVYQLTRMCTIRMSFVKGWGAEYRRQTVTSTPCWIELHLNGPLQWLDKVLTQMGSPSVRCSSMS

Target: Yes-associated protein (human (endogenous in HASMCs)) (UniProt P46937)
Test: co-IP; whole cell lysates of HASMCs (Cell Lysis Buffer with protease inhibitor) incubated with YAP antibody or control IgG overnight at 4°C, protein A/G agarose; co-precipitated SMAD2 detected by Western blot; cells untreated, treated with thrombin (1 U/mL), or pre-treated with dabigatran before thrombin

binding: binds
Substance: SMAD2 (from UniProt Q15796 1-467)
